The values below come from publication PMC9223716.

Results are given in words; binding and its absence hold for the method and conditions named. Binding seen in cells or lysates may run through a third protein. A result given as binding can be weak or reduced; the word gives no strength.

For this assay, the target named is T1, Inositol 1,4,5-triphosphate receptor-associated 2 (IRAG2) (mouse (endogenous in murine platelets)) (UniProt Q60664).
T1 sequence: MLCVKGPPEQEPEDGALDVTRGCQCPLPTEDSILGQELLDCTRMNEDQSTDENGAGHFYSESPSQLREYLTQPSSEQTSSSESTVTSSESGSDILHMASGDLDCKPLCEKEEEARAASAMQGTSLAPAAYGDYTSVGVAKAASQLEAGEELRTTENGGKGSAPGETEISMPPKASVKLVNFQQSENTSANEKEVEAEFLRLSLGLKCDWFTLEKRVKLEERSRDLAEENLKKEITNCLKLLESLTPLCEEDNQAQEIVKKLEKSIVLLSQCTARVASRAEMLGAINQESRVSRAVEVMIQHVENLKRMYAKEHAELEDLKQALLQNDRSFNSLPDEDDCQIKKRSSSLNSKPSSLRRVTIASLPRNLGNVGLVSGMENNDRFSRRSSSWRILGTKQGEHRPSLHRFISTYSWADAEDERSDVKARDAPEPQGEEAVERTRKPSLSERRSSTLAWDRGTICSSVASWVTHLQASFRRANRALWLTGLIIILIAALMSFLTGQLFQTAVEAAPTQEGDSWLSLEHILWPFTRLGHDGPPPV
The assay can be described thus: co-IP; IRAG2 precipitated with anti-mouse LRMP (C-terminal) antibody and Protein-A-Sepharose from 1000 µg platelet lysate of IRAG2-WT and IRAG2-KO mice; 50 mM Tris HCl, 15 mM EGTA, 100 mM NaCl, 0.1% Triton X-100, pH 7.5, 1 mM DTT; Western Blot of partners.

In the case of “IP3 receptor type 2 (IP3R2) (mouse (endogenous in murine platelets))”, the binding result is “binds weakly”.
